Assay results published in PMC7819943, “Rice protein-binding microarrays: a tool to detect cis-acting elements near promoter regions in rice”.
This is one part of the list.

By UniProt entry, the sequences of proteins in these tests, tags left out.
UniProt Q0JBA9, entry or part of it: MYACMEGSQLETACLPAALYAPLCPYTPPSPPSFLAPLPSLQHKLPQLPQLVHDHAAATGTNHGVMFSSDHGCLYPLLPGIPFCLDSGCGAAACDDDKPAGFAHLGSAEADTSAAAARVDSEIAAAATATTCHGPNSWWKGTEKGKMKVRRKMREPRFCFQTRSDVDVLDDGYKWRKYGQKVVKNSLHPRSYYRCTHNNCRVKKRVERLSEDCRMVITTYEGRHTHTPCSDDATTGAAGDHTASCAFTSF

Each sequence was assayed against OsWRKY34 (Oryza sativa, UniProt Q0JBA9 1-250) (assay: protein-binding microarray (RPBM); PBS, 2% BSA, 51.3 ng/ul salmon testes DNA, 50 uM zinc acetate, 200 nM TF, 25 C, 1 h; high values mean tight binding). Details: protein: recombinant; tags: N-terminal polyhistidine and DsRed monomer fusion (pET32a); label: CyDye5-dUTP incorporated in the synthesized complementary strand; 3' TTTTT single-stranded linker to array surface; dsDNA, one strand shown.
Outline: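 An Axon 4000B scanner gave the binding signal as per-feature fluorescence intensity in arbitrary units. This followed washing of a custom Agilent array that had been incubated for 1 h at 25 °C with 200 nM protein in PBS, 2% BSA, salmon testes DNA and 50 µM zinc acetate. The proteins were transcription factors fused at the N-terminus to polyhistidine and DsRed, expressed in E. coli BL21-CodonPlus and purified on Ni–NTA.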
“GGAACGTGGTATTAGTATTACTACCCTGCTCTGAGTTGATCGGAGTCACCTAGTGCAG” was tested, and the binding signal was 8750 fluorescence intensity (a.u.).
With “AATCCTTCAGTCTTCTGCACGTTTACCCTAAGTTTTATGGCGGAGTCACCTAGTGCAG” the binding signal was 8570 fluorescence intensity (a.u.).
In the case of “GCCCACGGACCAGCCACACATTTCCACTGACACGCGCTAACGGAGTCACCTAGTGCAG”, the binding signal is reported as 10300 fluorescence intensity (a.u.).
In the case of “GTCCATGATGCCCTAGTAAGCTTTCACGCCGGCGAGCAATCGGAGTCACCTAGTGCAG”, the binding signal is reported as 8280 fluorescence intensity (a.u.).
For “CATTGTTCCTCACAGGATCAGGGGTGGAGAGTGAAGAGAGCGGAGTCACCTAGTGCAG”, the binding signal was 8070 fluorescence intensity (a.u.).
“GTTTATGCTGTTGCTGATGAGGGTGGTGTGGGAATGTGCGCGGAGTCACCTAGTGCAG” was tested, and the binding signal was 8240 fluorescence intensity (a.u.).
“GATGTCTCTCTTTTTTTTTTTGGTTTGGGTTGTCACTTTTCGGAGTCACCTAGTGCAG” was tested, and the binding signal was 9400 fluorescence intensity (a.u.).
For “GAATTACTCTCGTTGCTGGACTAATTTCTTGTTGGATACTCGGAGTCACCTAGTGCAG”, the binding signal was 9400 fluorescence intensity (a.u.).
For “GAGGCGCGCGCCACCACCGCGACAGTTTCCCGCGCTTTTTCGGAGTCACCTAGTGCAG”, the binding signal was 9220 fluorescence intensity (a.u.).
With “TTGCATCCGGGACTATTGTGGAATTCGACCGACCGACGAACGGAGTCACCTAGTGCAG” the binding signal was 8820 fluorescence intensity (a.u.).
For “CGTGTATATATTTCTCCACTTCCTAGAGTTGGCAACACTACGGAGTCACCTAGTGCAG”, the binding signal was 9460 fluorescence intensity (a.u.).
With “GGGGTTTTTTAATCAAAGTTTATTTTTCAGCCCTTGTTTTCGGAGTCACCTAGTGCAG” the binding signal was 8310 fluorescence intensity (a.u.).
In the case of “ATTCACCTTGCAATGGGTTCCTTTGGGTACTTTGCCGCTCCGGAGTCACCTAGTGCAG”, the binding signal is reported as 8900 fluorescence intensity (a.u.).
“GGACCATCTCCGCCGCCGCCGCTGCCATCACTTCGTCCTCCGGAGTCACCTAGTGCAG” was tested, and the binding signal was 17600 fluorescence intensity (a.u.).
In the case of “GTACAACATTCATCATCCATCACCCATATCGTTCAAGATGCGGAGTCACCTAGTGCAG”, the binding signal is reported as 8150 fluorescence intensity (a.u.).
With “CATGCATGCTTCTATTCATTGCGATTTGCGAGCTCAATTGCGGAGTCACCTAGTGCAG” the binding signal was 8980 fluorescence intensity (a.u.).
“GTGAATATTTAGGCTGAGTTTTTATCTCTACTTTCCAACTCGGAGTCACCTAGTGCAG” was tested, and the binding signal was 9630 fluorescence intensity (a.u.).
“TCTCCATCCGTCCGTCCATCCGTGCGGAACCAATCGTACGCGGAGTCACCTAGTGCAG” was tested, and the binding signal was 8780 fluorescence intensity (a.u.).
For “GTGCCATCTTTCTATTATTTAGGTCGTTGATTGCTTAAGTCGGAGTCACCTAGTGCAG”, the binding signal was 8500 fluorescence intensity (a.u.).
For “GTTCTTACTGTATCGCCTGAAATTCCTGGTGTTAAGCTCTCGGAGTCACCTAGTGCAG”, the binding signal was 8350 fluorescence intensity (a.u.).
With “GGTGGTCGTCGCCATGGCGTGCTCTGCCTTCGAGCTTTTTCGGAGTCACCTAGTGCAG” the binding signal was 8450 fluorescence intensity (a.u.).
With “CAAATCCGCTCCGTTAGCTTCTCGCCGGCTATTCAACCTTCGGAGTCACCTAGTGCAG” the binding signal was 11200 fluorescence intensity (a.u.).
With “CCGAACACCCTCGCCGCGCACCCCGCCTCGAAACCTCCGCCGGAGTCACCTAGTGCAG” the binding signal was 8810 fluorescence intensity (a.u.).
In the case of “CATCGTTGACCAAGAATAAGAACAGCGAATTTGCATAATGCGGAGTCACCTAGTGCAG”, the binding signal is reported as 14700 fluorescence intensity (a.u.).
With “GAAGTTTTCCGAAATGCTACTTGGCCTTTTTAGCTACCAACGGAGTCACCTAGTGCAG” the binding signal was 8550 fluorescence intensity (a.u.).
In the case of “TATGAGATTTTTTTTATTTTCATTGTATTTATATCCAATTCGGAGTCACCTAGTGCAG”, the binding signal is reported as 8670 fluorescence intensity (a.u.).
“CCTATTCCACATATTCCACAAATATTTGTTGCAAGCCATCCGGAGTCACCTAGTGCAG” was tested, and the binding signal was 10000 fluorescence intensity (a.u.).
“GTTTTTTGGTTGGGGTGTGTTTTGGTCTATCGAGGTTCAACGGAGTCACCTAGTGCAG” was tested, and the binding signal was 15600 fluorescence intensity (a.u.).
With “CTCTCGTCTCGCCCTGGCGTACGTTGTTTGTGTCACGCTTCGGAGTCACCTAGTGCAG” the binding signal was 9120 fluorescence intensity (a.u.).
“CTCCTCGTCCATGTCCTCGTCTTCTTTCTTCCACACCAAACGGAGTCACCTAGTGCAG” was tested, and the binding signal was 11900 fluorescence intensity (a.u.).
With “CTCCCGCCTCTGCGTCCCGCGCCGCCGCCCGCCACTCGACCGGAGTCACCTAGTGCAG” the binding signal was 8870 fluorescence intensity (a.u.).
For “ACTTCACGCTTTCTCTCTGAGCTAGTGGTCCCACATGTCACGGAGTCACCTAGTGCAG”, the binding signal was 8560 fluorescence intensity (a.u.).
“ATATATTGCTTGTGTTGCTTATTTTCCAATCGTCTCCTTTCGGAGTCACCTAGTGCAG” was tested, and the binding signal was 10300 fluorescence intensity (a.u.).
“TAACTATCCCCTGTTACTACTCTTGATCCTTGTATCCCTGCGGAGTCACCTAGTGCAG” was tested, and the binding signal was 8200 fluorescence intensity (a.u.).
With “CAATCGGCTTTACTGTGCGTCTGATTACTGTGCGCGAGACCGGAGTCACCTAGTGCAG” the binding signal was 8440 fluorescence intensity (a.u.).
For “CATTCAAGCTCTACTATCCAACATCACTCGAGGTTCTTTTCGGAGTCACCTAGTGCAG”, the binding signal was 11200 fluorescence intensity (a.u.).
“AATATTTTGGGTATTACATCGAACGTTTGACCAGATGTTGCGGAGTCACCTAGTGCAG” was tested, and the binding signal was 10200 fluorescence intensity (a.u.).
With “TATAAGACGTTTTGACTTTGGTCAAAGTCAAACTGCTTCACGGAGTCACCTAGTGCAG” the binding signal was 13700 fluorescence intensity (a.u.).
With “ATACTTATTCCTTTTTAGCGCAACCTGATAGTGTCTCATACGGAGTCACCTAGTGCAG” the binding signal was 8560 fluorescence intensity (a.u.).
“CTATCATCTCCCCTCACTCTCTCTTTCTCTCCTCTCTTGCCGGAGTCACCTAGTGCAG” was tested, and the binding signal was 8080 fluorescence intensity (a.u.).
With “CGCCTCGGACCACATGCACACGCAAACCCACCGCCAATTTCGGAGTCACCTAGTGCAG” the binding signal was 9040 fluorescence intensity (a.u.).
With “AAAAGTTCAAATATTAGTCTATCATCCTATCTATTTTTTTCGGAGTCACCTAGTGCAG” the binding signal was 8620 fluorescence intensity (a.u.).
